Experimental data reported in patent publication US20250195685A1.
Results are given in words; binding and its absence hold for the method and conditions named. Some binding calls cover weakened binding; strength is not graded here. Tags and fused reporters may be left off the sequences shown.

Protein sequences, listed by entry. Tags and fused reporters are not part of them. Residues count along the entry.
UniProt P01732, residues 22-235: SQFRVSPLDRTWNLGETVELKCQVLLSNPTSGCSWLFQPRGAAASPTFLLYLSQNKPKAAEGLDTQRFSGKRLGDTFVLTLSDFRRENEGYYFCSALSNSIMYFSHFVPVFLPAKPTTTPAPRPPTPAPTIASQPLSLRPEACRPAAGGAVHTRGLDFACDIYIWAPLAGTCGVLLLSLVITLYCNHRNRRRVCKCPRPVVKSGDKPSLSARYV

What was measured:
[1] = biological target: human CD8 on cells (CD8-overexpressing HEK293T cells, SupT1, HPB-ALL, human T cells, transfected HEK293 of the proteome array) (human) (UniProt P01732); assay: flow cytometry on CD8-overexpressing HEK293T cells, anti-human Fc BV421, gMFI normalized to secondary alone
[2] = biological target: human CD8 on cells (CD8-overexpressing HEK293T cells, SupT1, HPB-ALL, human T cells, transfected HEK293 of the proteome array) (human) (UniProt P01732); assay: flow cytometry on expanded human T cells
[3] = biological target: human CD8 on cells (CD8-overexpressing HEK293T cells, SupT1, HPB-ALL, human T cells, transfected HEK293 of the proteome array) (human) (UniProt P01732); assay: flow cytometry, gMFI fold over background (FIG. 8B)
[4] = biological target: human CD8 on cells (CD8-overexpressing HEK293T cells, SupT1, HPB-ALL, human T cells, transfected HEK293 of the proteome array) (human) (UniProt P01732); assay: flow cytometry, Human Expanded T cells Donor 5 and Donor 6, gated on CD4- T cells, anti-human Fc BV421

Row | Binder | binding [1] | further results
1 | CBD1032 whole antibody, Fc-silenced human IgG1 (LALAPA) (antibody, V domains shown) VH: QVQLVQSGAEVKKPGASVKVSCKASRYTFTDYNLHWVRQAPGQGLEWMGFIYPYNGGTGYAQKFQGRVTMTRDTSTSTVYMELSSLRSEDTAVYYCARDHRYNEGVSFDYWGQGTTVTVSS VL: DIQMTQSPSSLSASVGDRVTITCRASESVDGFGNSFMNWYQQKPGKAPKLLIYLASNLESGVPSRFSGSGSGTDFTLTISSLQPEDFATYYCQQNNEDPYTFGQGTKLEIKR | binds | –
2 | CBD1033 whole antibody, human IgG1 with Fc-silencing mutations L234A, L235A and P329A (CBD1033-hIgG1-LALAPA) (antibody, V domains shown) VH: QVQLVQSGAEVKKPGASVKVSCKASRYTFTDYNLHWVRQAPGQGLEWMGFIYPYNGGTGYAQKFQGRVTMTVDTSTSTAYMELSSLRSEDTAVYYCARDHRYNEGVSFDYWGQGTTVTVSS VL: DIQLTQSPSSLSASVGDRATITCRASESVDGFGNSFMNWYQQKPGKAPKLLIYLASNLESGVPSRFSGSGSGTDFTLTISSVQPEDFATYYCQQNNEDPYTFGQGTKLEIKR | binds | binding [2]: binds; binding [3]: binds; binding [4]: binds
3 | CBD1034 whole antibody, Fc-silenced human IgG1 (LALAPA) (antibody, V domains shown) VH: QVQLVQSGAEVKKPGASVKVSCKASRYTFTDYNLHWVRQAPGQGLEWMGFIYPYNGGTGYAQKFQGRVTMTVDTSTSTAYMELSSLRSEDTAVYYCARDHRYNEGVSFDYWGQGTTVTVSS VL: DIQLTQSPSSLSASVGDRATITCRASESVDGFGNSFMNWYQQKPGKAPKLLIYLASNLESGVPSRFSGSGSRTDFTLTISSVQPEDFATYYCQQNNEDPYTFGQGTKLEIKR | binds | –
4 | CBD1035 whole antibody, Fc-silenced human IgG1 (LALAPA) (antibody, V domains shown) VH: QVQLVQSGAEVKKPGASVKISCKASRYTFTDYNLHWVRQAPGQGLEWIGFIYPYNGGTGYAQKFQGRATLTVDTSTSTAYMELSSLRSEDTAVYYCARDHRYNEGVSFDYWGQGTTLTVSS VL: DIQLTQSPSSLSASVGDRATITCRASESVDGFGNSFMNWYQQKPGKAPKLLIYLASNLESGVPSRFSGSGSGTDFTLTISSVQPEDFATYYCQQNNEDPYTFGQGTKLEIKR | binds | –
5 | CBD1036-hIgG1-LALAPA (antibody, V domains shown) VH: QVQLVQSGAEVKKPGASVKISCKASRYTFTDYNLHWVRQAPGQGLEWIGFIYPYNGGTGYAQKFQGRATLTVDTSTSTAYMELSSLRSEDTAVYYCARDHRYNEGVSFDYWGQGTTLTVSS VL: DIQLTQSPSSLSASVGDRATITCRASESVDGFGNSFMNWYQQKPGKAPKLLIYLASNLESGVPSRFSGSGSRTDFTLTISSVQPEDFATYYCQQNNEDPYTFGQGTKLEIKR | binds | –
6 | CBD1037-hIgG1-LALAPA (antibody, V domains shown) VH: QVQLVQSGAEVKKPGASVKVSCKASRYTFTDYNLHWVRQAPGQGLEWMGFIYPYNGGTGYAQKFQGRVTMTVDYSTSTAYMELSSLRSEDTAVYYCARDHRYNEGVSFDYWGQGTTVTVSS VL: DIQLTQSPSSLSASVGDRATITCRASESVDGFGNSFMNWYQQKPGKAPKLLIYLASNLESGVPSRFSGSGSGTDFTLTISSVQPEDFATYYCQQNNEDPYTFGQGTKLEIKR | binds | –
7 | CBD1038-hIgG1-LALAPA (antibody, V domains shown) VH: QVQLVQSGAEVKKPGASVKVSCKASRYTFTDYNLHWVRQAPGQGLEWMGFIYPYNGGTGYAQKFQGRVTMTVDYSTSTAYMELSSLRSEDTAVYYCARDHRYNEGVSFDYWGQGTTVTVSS VL: DIQLTQSPSSLSASVGDRATITCRASESVDGFGNSFMNWYQQKPGKAPKLLIYLASNLESGVPSRFSGSGSRTDFTLTISSVQPEDFATYYCQQNNEDPYTFGQGTKLEIKR | binds | –
8 | CBD1039 whole antibody, Fc-silenced human IgG1 (LALAPA) (antibody, V domains shown) VH: QVQLVQSGAEVKKPGASVKISCKASRYTFTDYNLHWVRQAPGQGLEWIGFIYPYNGGTGYAQKFQGRATLTVDYSTSTAYMELSSLRSEDTAVYYCARDHRYNEGVSFDYWGQGTTLTVSS VL: DIQLTQSPSSLSASVGDRATITCRASESVDGFGNSFMNWYQQKPGKAPKLLIYLASNLESGVPSRFSGSGSGTDFTLTISSVQPEDFATYYCQQNNEDPYTFGQGTKLEIKR | binds | –
9 | CBD1040 whole antibody, Fc-silenced human IgG1 (LALAPA) (antibody, V domains shown) VH: QVQLVQSGAEVKKPGASVKISCKASRYTFTDYNLHWVRQAPGQGLEWIGFIYPYNGGTGYAQKFQGRATLTVDYSTSTAYMELSSLRSEDTAVYYCARDHRYNEGVSFDYWGQGTTLTVSS VL: DIQLTQSPSSLSASVGDRATITCRASESVDGFGNSFMNWYQQKPGKAPKLLIYLASNLESGVPSRFSGSGSRTDFTLTISSVQPEDFATYYCQQNNEDPYTFGQGTKLEIKR | binds | –
